Results taken from patent US20120202756A1, “USE OF PRODRUGS TO AVOID GI MEDIATED ADVERSE EVENTS” (priority 2009, published 2012).
Where two headings read alike, the source gives them in different places.

Key:
in vivo = conditions: male rats
Experimental: (§1) Serial tail vein blood samples were subsequently collected via an indwelling cannuala into EDTA tubes containing a stabilising cocktail (including 6 mg/mL NaF) to prevent post collection enzymic hydrolysis of the prodrug.

[1] = male rats
Experimental: as §1

CCC[C@@H]1C[C@@H](C(=O)N[C@@H]([C@H]2O[C@H](SC)[C@H](O)[C@@H](O)[C@H]2O)[C@H](C)Cl)N(C)C1 [Clindamycin, clindamycin, reference compound]
AUC(0-t) (in vivo; male, Sprague Dawley, rat, in vivo, po, 5 mg clindamycin equivalents/kg, AUCt, plasma clindamycin, oral 5 mg clindamycin equivalents/kg, mean): 472 ng·h/mL
Cmax (in vivo; male, Sprague Dawley, rat, in vivo, po, 5 mg clindamycin equivalents/kg, plasma clindamycin, oral 5 mg clindamycin equivalents/kg, individual animals): 251 ng/mL
Cmax (in vivo; male, Sprague Dawley, rat, in vivo, po, 5 mg clindamycin equivalents/kg, plasma clindamycin, oral 5 mg clindamycin equivalents/kg, mean): 256 ng/mL
Tmax (in vivo; male, Sprague Dawley, rat, in vivo, po, 5 mg clindamycin equivalents/kg, Tmax, plasma clindamycin, oral 5 mg clindamycin equivalents/kg, mean): 18 min
time of peak plasma levels after dosing (in vivo; oral): ≤ 15 min

COc1cc2c(cc1OC)C(=O)C(CC1CCN(Cc3ccccc3)CC1)C2 (stereo not shown) [Donepezil, donepezil, reference compound]
time of peak plasma levels after dosing ([1]; oral): ≤ 35 min
t½ ([1]; plasma donepezil, oral 1 mg donepezil equivalents/kg, mean): 186 min
